Results on one molecule are retold here after US12320798B2, “Diagnostic methods, therapeutic agents and uses thereof” (Metabolon, Inc., priority 2015, dated 2025).

The structures appear in SMILES notation.

A short description of this data set: Plasma 2-methylsuccinate in type 2 diabetic vs non-diabetic Japanese subjects. It is filed as in vivo, human. To be noted: age and sex-matched Japanese subjects.

On to `CC(CC(=O)O)C(=O)O` (stereo not shown) [2-methylsuccinate], for which the “plasma level, type 2 diabetic compared to non-diabetic subjects” value amounted to 4.21 fold.
